# Primary screen of a compound library

Protein sequences, listed by entry. Tags and fused reporters are not part of them. Residues count along the entry.
UniProt I6X8D2, whole entry: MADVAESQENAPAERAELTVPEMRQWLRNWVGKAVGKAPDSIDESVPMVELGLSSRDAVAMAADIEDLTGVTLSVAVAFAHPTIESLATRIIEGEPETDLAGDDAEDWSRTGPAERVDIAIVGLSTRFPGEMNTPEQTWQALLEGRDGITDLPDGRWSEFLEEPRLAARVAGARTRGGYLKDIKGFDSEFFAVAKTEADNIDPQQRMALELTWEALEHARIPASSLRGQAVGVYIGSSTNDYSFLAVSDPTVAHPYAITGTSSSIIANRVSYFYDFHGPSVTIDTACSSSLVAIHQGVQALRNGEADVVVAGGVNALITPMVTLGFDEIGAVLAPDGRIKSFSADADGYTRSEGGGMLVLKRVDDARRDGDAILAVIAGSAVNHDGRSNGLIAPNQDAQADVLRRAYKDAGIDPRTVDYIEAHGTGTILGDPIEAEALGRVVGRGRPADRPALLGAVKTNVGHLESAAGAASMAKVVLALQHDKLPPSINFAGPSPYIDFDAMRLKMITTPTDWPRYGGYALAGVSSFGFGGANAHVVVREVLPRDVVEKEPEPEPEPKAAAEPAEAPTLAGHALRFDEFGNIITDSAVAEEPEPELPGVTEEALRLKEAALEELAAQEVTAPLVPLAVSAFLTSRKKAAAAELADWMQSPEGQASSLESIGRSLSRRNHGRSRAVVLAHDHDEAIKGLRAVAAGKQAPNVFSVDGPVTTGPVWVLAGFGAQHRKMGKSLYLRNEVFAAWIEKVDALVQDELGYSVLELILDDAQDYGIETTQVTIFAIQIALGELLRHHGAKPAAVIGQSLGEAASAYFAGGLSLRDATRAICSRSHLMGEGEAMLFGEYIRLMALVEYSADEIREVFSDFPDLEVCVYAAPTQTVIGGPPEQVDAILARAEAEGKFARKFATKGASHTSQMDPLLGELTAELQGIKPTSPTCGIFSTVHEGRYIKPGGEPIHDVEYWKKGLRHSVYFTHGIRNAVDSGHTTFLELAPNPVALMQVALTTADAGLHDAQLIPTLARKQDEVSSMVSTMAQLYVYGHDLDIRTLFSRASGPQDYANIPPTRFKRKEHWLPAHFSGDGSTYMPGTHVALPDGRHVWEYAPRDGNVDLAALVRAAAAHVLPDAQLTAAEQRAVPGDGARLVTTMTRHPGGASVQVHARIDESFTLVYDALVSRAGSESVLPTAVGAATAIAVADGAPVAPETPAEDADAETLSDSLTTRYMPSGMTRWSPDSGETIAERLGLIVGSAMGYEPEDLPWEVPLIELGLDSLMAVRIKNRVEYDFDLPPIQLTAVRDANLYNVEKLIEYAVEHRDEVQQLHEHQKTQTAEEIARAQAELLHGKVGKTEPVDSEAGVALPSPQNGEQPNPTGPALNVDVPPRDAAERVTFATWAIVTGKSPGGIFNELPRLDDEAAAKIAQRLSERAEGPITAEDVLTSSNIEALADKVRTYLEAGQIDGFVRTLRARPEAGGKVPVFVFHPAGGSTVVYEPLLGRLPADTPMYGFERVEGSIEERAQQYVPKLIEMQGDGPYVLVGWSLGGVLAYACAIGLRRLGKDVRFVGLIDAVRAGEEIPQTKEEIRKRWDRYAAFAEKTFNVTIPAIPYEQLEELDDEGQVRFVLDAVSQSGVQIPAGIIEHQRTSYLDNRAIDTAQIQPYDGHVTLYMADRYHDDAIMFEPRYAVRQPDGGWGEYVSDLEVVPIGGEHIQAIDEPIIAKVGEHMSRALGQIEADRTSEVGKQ
UniProt Q4DA54, 1-478: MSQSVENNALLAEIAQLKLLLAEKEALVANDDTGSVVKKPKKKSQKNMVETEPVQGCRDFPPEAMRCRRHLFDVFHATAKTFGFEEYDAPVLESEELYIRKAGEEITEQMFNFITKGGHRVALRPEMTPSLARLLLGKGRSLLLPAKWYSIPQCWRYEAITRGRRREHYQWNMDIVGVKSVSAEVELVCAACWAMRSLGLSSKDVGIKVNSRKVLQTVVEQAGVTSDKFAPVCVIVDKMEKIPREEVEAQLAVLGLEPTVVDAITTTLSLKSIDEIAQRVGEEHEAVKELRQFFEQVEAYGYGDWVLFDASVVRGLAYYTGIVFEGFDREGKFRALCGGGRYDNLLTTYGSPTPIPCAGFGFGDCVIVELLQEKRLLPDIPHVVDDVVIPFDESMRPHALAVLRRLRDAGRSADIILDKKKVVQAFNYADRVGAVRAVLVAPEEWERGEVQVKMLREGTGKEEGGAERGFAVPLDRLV
UniProt P9WPC5, whole entry: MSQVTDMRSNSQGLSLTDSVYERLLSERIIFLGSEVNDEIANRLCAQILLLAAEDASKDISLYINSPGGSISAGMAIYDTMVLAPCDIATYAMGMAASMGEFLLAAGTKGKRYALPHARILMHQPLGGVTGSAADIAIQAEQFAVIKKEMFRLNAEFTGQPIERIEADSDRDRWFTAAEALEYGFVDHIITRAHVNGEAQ
UniProt P9WPC3, whole entry partner: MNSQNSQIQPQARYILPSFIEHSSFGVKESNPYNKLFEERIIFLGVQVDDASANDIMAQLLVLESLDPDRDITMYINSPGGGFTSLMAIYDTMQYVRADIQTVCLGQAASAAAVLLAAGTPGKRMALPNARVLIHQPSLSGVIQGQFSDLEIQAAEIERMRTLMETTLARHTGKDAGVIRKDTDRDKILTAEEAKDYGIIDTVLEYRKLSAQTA
UniProt A4I591, 1-473: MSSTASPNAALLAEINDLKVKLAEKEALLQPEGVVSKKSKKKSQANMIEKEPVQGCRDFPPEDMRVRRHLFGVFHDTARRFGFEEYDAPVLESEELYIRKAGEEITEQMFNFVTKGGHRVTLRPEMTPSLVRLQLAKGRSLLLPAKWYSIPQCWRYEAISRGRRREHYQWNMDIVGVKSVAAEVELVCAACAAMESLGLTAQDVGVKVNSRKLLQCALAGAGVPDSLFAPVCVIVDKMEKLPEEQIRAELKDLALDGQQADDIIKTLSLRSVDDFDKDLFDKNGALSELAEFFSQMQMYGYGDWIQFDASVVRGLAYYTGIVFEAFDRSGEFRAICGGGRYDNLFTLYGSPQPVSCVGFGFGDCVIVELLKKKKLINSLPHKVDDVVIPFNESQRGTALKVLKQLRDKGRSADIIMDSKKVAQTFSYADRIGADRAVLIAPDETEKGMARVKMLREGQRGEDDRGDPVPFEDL

Measurements from “University of Dundee, Small-Polar-MMV Screening Library” (2021), ChEMBL document CHEMBL3988442.

Each number is a percent effect as filed.
The record does not define 0% and 100%; most values in the screen are far below 50% and negative numbers occur (in some assays of this library far below -100).
The compounds are a random part of those screened.

Pks13 thioesterase: 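Polyketide synthase Pks13, Mycobacterium tuberculosis (UniProt I6X8D2). Enzyme assay of the thioesterase domain of polyketide synthase 13; the read-out is not stated. Tested at 30 µM. The record gives no direction; the compounds picked for IC50 retests had high values, so higher reads as stronger inhibition. About 67,000 compounds were tested under these conditions; 0.46% (about 300) showed 50% or more at least once.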
TcHisRS: 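Enzyme assay of histidyl-tRNA synthetase; the read-out is not stated. Target: Histidine-tRNA ligase, Trypanosoma cruzi CL Brener (UniProt Q4DA54). Compounds at 30 µM. Direction is inferred from retests: higher values go with stronger inhibition. About 69,000 compounds were tested under these conditions; 0.045% (about 31) showed 50% or more at least once.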
ClpP1P2: 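ClpP1P2, Mycobacterium tuberculosis (UniProt P9WPC5 and UniProt P9WPC3). Protease assay of ClpP1P2, read by the AMC dye that it sets free. Concentration: 50 µM. Higher reads as stronger inhibition, judged from the few compounds that gave an IC50. Most other retested compounds had strongly negative values. Size under these conditions: about 69,000 compounds, about 10 of them at 50% or above in at least one test.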
Leishmania in macrophages: 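Cell assay of Leishmania donovani living inside macrophages; the read-out is not stated. Compounds at 30 µM. Higher reads as stronger inhibition (inferred: compounds with an IC50 in retests scored well above the rest). Size under these conditions: about 69,000 compounds, about 1,000 of them at 50% or above in at least one test.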
LiHisRS: 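Histidine-tRNA ligase, Leishmania infantum (UniProt A4I591). Enzyme assay of histidyl-tRNA synthetase; the read-out is not stated. Compounds at 30 µM. The record gives no direction; compounds that gave an IC50 in retests scored well above the rest, so higher reads as stronger inhibition. The assay is labelled LdHisRS but filed under L. infantum. Of about 69,000 compounds tested this way, about 410 (0.6%) reached 50% or more in at least one test.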

Result for Cc1nc(-c2cc(C(=O)N3CCN(C)CC3)c3ccccn23)cn1C was Pks13 thioesterase: 9.806%; TcHisRS: 10.34%; ClpP1P2: -24.49%; Leishmania in macrophages: 12.15%; LiHisRS: 24%. Cc1nc(CN2CCN(C(=O)c3ccc(=O)n(C)c3)CC2)cs1 read Pks13 thioesterase: -14.71%; TcHisRS: 10%; ClpP1P2: 10.31%; Leishmania in macrophages: 15.74%; LiHisRS: 17.12%. With CCn1c(SCC(N)=O)nnc1-c1csc2c1CCCC2 the screen gave Pks13 thioesterase: -0.9258%; TcHisRS: 0.9901%; ClpP1P2: -0.1835%; Leishmania in macrophages: -13.6%; LiHisRS: -1.099%. Result for CN(C)[C@@H]1CCN(c2ncc(F)cn2)[C@H]1Cc1cccnc1 was Pks13 thioesterase: -19.68%; TcHisRS: 5.473%; ClpP1P2: -9.571%; LiHisRS: 19.44%. Result for Cc1nc(C)c(C(=O)N2CCc3[nH]nc(COc4ccccc4)c3C2)s1 was Pks13 thioesterase: -28.58%; TcHisRS: 5.155%; ClpP1P2: 1.9%; Leishmania in macrophages: 7.304%; LiHisRS: 17.14%. Result for Cc1nc(N2CCOCC2)nc2c1CCN(C(=O)NC1CCCC1)CC2 was Pks13 thioesterase: -7.618%; TcHisRS: 0.5464%; ClpP1P2: 12.2%; Leishmania in macrophages: -7.247%; LiHisRS: -36.89%. O=C(c1cccc2ccnn12)N1CCC[C@H]1CN1CCCC1 read Pks13 thioesterase: -3.278%; TcHisRS: 8.995%; ClpP1P2: 5.467%; Leishmania in macrophages: 2.669%; LiHisRS: -102.7%.

Result for Cc1cc(N2CCCN(C(C(=O)O)c3cccc(C)c3F)CC2)ccn1 (stereo unspecified) was Pks13 thioesterase: 5.626%; TcHisRS: -0.5128%; ClpP1P2: 0.308%; Leishmania in macrophages: 31.56%; LiHisRS: 15.87%. Result for O=C(NC[C@H]1OC[C@@H](NC2CCC(F)(F)CC2)[C@@H]1O)C1CC1 was Pks13 thioesterase: -28.2%; TcHisRS: 2.174%; ClpP1P2: -7.143%; Leishmania in macrophages: 16.27%; LiHisRS: 22.97%. With COc1cccc2c1OCC(CNC(=O)Cn1ccnc1C)C2 (stereo unspecified) the screen gave Pks13 thioesterase: 0.8795%; TcHisRS: 7.609%; ClpP1P2: -14.2%; Leishmania in macrophages: 4.9%; LiHisRS: 19.74%. With CC1(c2ccccc2)CCCN(Cc2cncn2C2CC2)C1 (stereo unspecified) the screen gave Pks13 thioesterase: -60.99%; TcHisRS: 10.39%; ClpP1P2: -2.842%; Leishmania in macrophages: 33.62%; LiHisRS: 31.43%. For CN(CC1(C)COC1)C(=O)c1cc(-c2ccn(C)n2)nc2ccccc12 the result was Pks13 thioesterase: -15.16%; TcHisRS: -1.149%; ClpP1P2: -2.563%; Leishmania in macrophages: 8.597%; LiHisRS: -4.317%. COc1cc(C2(C(=O)NC3CCC4(CC3)OCCO4)CC2)ccc1C read Pks13 thioesterase: -14.95%; TcHisRS: 4.444%; ClpP1P2: -2.093%; Leishmania in macrophages: 16.71%; LiHisRS: 16.24%. For CCCNC(=O)c1cc2c(s1)CCN2C(=O)CN(C)C.O=C(O)C(F)(F)F the result was Leishmania in macrophages: 3.555%.

Cc1cnc(N2CCc3c(CN(C)Cc4ccco4)cncc3C2)nc1 gave Pks13 thioesterase: -19.78%; TcHisRS: 5.714%; ClpP1P2: -17.23%; Leishmania in macrophages: 5.931%; LiHisRS: 8.333%. Result for Cc1cccc(N2CCN(C(=O)CN3CCC(C(N)=O)CC3)CC2)c1 was Pks13 thioesterase: -13.69%; TcHisRS: 3.061%; ClpP1P2: -4.275%; Leishmania in macrophages: 34.71%; LiHisRS: 16.13%. Cc1noc(C)c1CN1CC[C@H]2C[C@@H](c3ccncn3)O[C@@H]2C1 read Pks13 thioesterase: -34.68%; TcHisRS: -0.5525%; ClpP1P2: -0.8482%; LiHisRS: 12.03%. O=C(O)C(F)(F)F.[H][C@@]12CN(C(=O)C3CC3)C[C@]1([H])OCCN2CC(=O)NC gave Leishmania in macrophages: 27.53%. For CCC(C)NC(=O)c1ccc(CNC(=O)CC(C)(C)C)cc1 (stereo unspecified) the result was Pks13 thioesterase: -4.739%; TcHisRS: 3.191%; ClpP1P2: 7.316%; Leishmania in macrophages: -2.04%; LiHisRS: 12.5%.

For reference, 2 entries once more:

- CCCNC(=O)c1cc2c(s1)CCN2C(=O)CN(C)C.O=C(O)C(F)(F)F : Leishmania in macrophages: 3.555%
- Cc1cccc(N2CCN(C(=O)CN3CCC(C(N)=O)CC3)CC2)c1 : Pks13 thioesterase: -13.69%; TcHisRS: 3.061%; ClpP1P2: -4.275%; Leishmania in macrophages: 34.71%; LiHisRS: 16.13%